# “And” between values parts separate entries of the source, which are not always exact repeats. Equal values may be shown once. Screen size: about 300,000 compounds; about 5,400 (1.8%) were called active. Inconclusive means that the source gave no clear call. Such entries were picked first, then a sample of the others. Calls come from the whole dose curve; tested in HEK293 cells. Where the call is inconclusive, the potency comes from a doubtful curve fit.
# Assay: qHTS for inhibitors of binding or entry into cells for Marburg Virus
# Details: Marburg virus pseudotyped entry inhibition, cell reporter; activity change, negative = inhibition: at 37.8 µM (top of the series) unless noted
# % is set by controls: 0 for no effect and ±100 for the full control effect; potency is the fitted concentration of half-maximal effect.
Structure (SMILES),Potency,"activity change, negative = inhibition"
CCOC(=O)N1CCN(c2nc(C)c3c(n2)CCCC3=O)CC1,"inconclusive: 20.6 µM [activator, single point]",
CC(C)(C)C1CCC(C(=O)NNC(=O)c2ccncc2)CC1 (stereo unspecified),"inconclusive: 5.62 µM [activator, single point]",
Cc1cccc(OCC(=O)N2CCOCC2)c1,"inconclusive: 35.5 µM [activator, single point]",
CN(C)c1ccc(N=Nc2ccc(C(=O)O)cc2)cc1,active: 2.82 µM,
COc1ccc(C(=O)/C=C/Nc2ccccn2)cc1,"inconclusive: 1.16 µM [inhibitor, full curve, poor fit]",
CCOC(=O)c1oc2ccccc2c1NC(=O)c1cccc(OC)c1OC,"inconclusive: 29.1 µM [inhibitor, single point]",
Nc1nnn(CC(=O)N/N=C/c2cccc3ccccc23)n1,"inconclusive: 1.41 µM [inhibitor, single point]",
OCC1O[C@H](O)C(Cl)C(O)C1O (stereo partly specified),"inconclusive: 501 nM [inhibitor, full curve, poor fit] and inconclusive: 29.1 µM [activator, single point]",
S=C(NCc1cccnc1)Nc1ccc(Cl)c(Cl)c1,,inactive: -22%
CC(CCc1ccccc1)NC(=O)c1cc2sccc2n1C (stereo unspecified),,inactive: -14.4%
Cc1ccc(Nc2ccc(C(=O)NCCc3ccccc3)cn2)cc1,,inactive: 10.9%
CCn1c(/C=C/c2cccc([N+](=O)[O-])c2)nc2ccccc2c1=O,,inactive: -15.5%
CN(CC(=O)Nc1ccccc1Br)C(=O)CCC1CCCC1,,inactive: 14.1%
O=[N+]([O-])c1ccc(O)c(/C=N/Nc2nc3ccccc3[nH]2)c1,active: 2.82 µM,
O=[N+]([O-])c1ccc(C(=S)N2CCC(Cc3ccccc3)CC2)cc1,"inconclusive: 12.6 µM [activator, single point]",
CCC(CC)C(=O)Nc1nnc(-c2cccs2)s1,,inactive: 8.67% [at 46.1 µM]
CCOc1ccccc1NC(=O)/C=C/c1ccc(S(=O)(=O)N2CCOCC2)cc1,,inactive: -7.36%
COc1cc([N+](=O)[O-])ccc1NC(=O)COC(=O)C=C(C)C,"inconclusive: 2.82 µM [inhibitor, single point]",
O=C(NCc1cccnc1)c1ccc2c(c1)C(=O)N(Cc1ccccc1)C2=O,"inconclusive: 17.8 µM [activator, single point]",
C[C@]12CCC3C(CC[C@H]4C[C@@H](O)CC[C@]34C)[C@H]1C=CC2=O (stereo partly specified),"inconclusive: 25.1 µM [inhibitor, single point]",
CCc1nnc(SCC(=O)NC2CCCC2)nc1CC,"inconclusive: 25.9 µM [activator, single point]",

# Some of these compounds in order of number of heavy atoms, ascending.
Structure (SMILES),Potency,"activity change, negative = inhibition"
OCC1O[C@H](O)C(Cl)C(O)C1O (stereo partly specified),"inconclusive: 501 nM [inhibitor, full curve, poor fit] and inconclusive: 29.1 µM [activator, single point]",
COc1cc([N+](=O)[O-])ccc1NC(=O)COC(=O)C=C(C)C,"inconclusive: 2.82 µM [inhibitor, single point]",
CCOc1ccccc1NC(=O)/C=C/c1ccc(S(=O)(=O)N2CCOCC2)cc1,,inactive: -7.36%

# — PubChem BioAssay AID540276 (National Center for Advancing Translational Sciences (NCATS), 2011)
